According to the supplement of paper PMC10338343:
± gives the standard deviation. Only a part is listed here, and it is no random draw. Many of these values have a large error.

What follows are sequences tested on MILI (PIWIL2) piRISC loaded with L1MC piRNA (26 nt) (assay: pre-steady-state target cleavage rate (min^-1); MIWI and MILI are mouse PIWI proteins and EfPiwi is from a freshwater sponge; tags in brackets are library labels; higher = faster piRNA-guided slicing of the target). Details: guide: L1MC piRNA 5'p-UAACUAAAUACUAUGCAAGCUGUAGG; auxiliary factor: 500 nM mouse GTSF1.
Summary of the method: (§1)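 A transcribed, DNA-blocked target RNA library […] was incubated at 33 °C for 0–8 or 0–960 min with 1 nM active affinity-purified piRISC carrying one synthetic guide, in HEPES–potassium acetate buffer with or without 500 nM GTSF1 partner protein. Uncleaved targets were then sequenced and normalised to depth and to weakly complementary targets. Data from three trials were pooled, with k3 capped at 0.0001 min^-1, and a burst-and-steady-state fit yielded the pre-steady-state cleavage rate.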
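Note: 1 nM active piRISC with 0.1 nM target library at 33 °C single turnover.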

With UCCUGGAUGUCGAACCAUAGUAAUUAGUUA as the sequence, how does the “pre-steady-state target cleavage rate” value read?
The value was 0.000264 ± 0.017.

How did the “pre-steady-state target cleavage rate” value turn out when UCCUGGAUGUCGAUGCAUACUUUUUAGUUA was run?
Its value is 0.000472 ± 0.021.

With UCCUCCUGCAGCUUGCAUAGUAUUUAGUUA as the sequence, how does the “pre-steady-state target cleavage rate” value read?
The value was 0.301 ± 0.018.

For UCCUCCUUACAGCUUGCAUAGUAUUUAGUUA, which “pre-steady-state target cleavage rate” value is on record?
The value was 0.301 ± 0.014.

UCCUGGAUCAGCUUCGAUAGUAUUUAGAAA was tested. Which “pre-steady-state target cleavage rate” value did it give?
Its value is 0.0608 ± 0.017.

Which “pre-steady-state target cleavage rate” value does the source give for UCCUCCUACAGCUUGCAUAAUAUUUAGUUA here?
The value was 0.292 ± 0.026.

For UCCUCGUACAGCUUGCAUAGUAUUUAGUUA, which “pre-steady-state target cleavage rate” value is on record?
Its value is 0.32 ± 0.015.

For UCCUGGAUGUCGAACGUAAUAUUUAGUUA, which “pre-steady-state target cleavage rate” value is on record?
Its value is 0.000239 ± 0.026.

Same assay, conditions: guide: L1MC piRNA 5'p-UAACUAAAUACUAUGCAAGCUGUAGG; auxiliary factor: none (no GTSF1)

For UCCUGGAUGUGCUUCCAUAGUAUUUAGUAA, which “pre-steady-state target cleavage rate” value is on record?
Its value is 0.00166 ± 0.0042.

UCCUGGAUGUCGAUGCAGAGUAUUUAGUUA was tested. Which “pre-steady-state target cleavage rate” value did it give?
The value was 0.00153 ± 0.0032.

For UCCUGGUACAGCUUCCAUAGUAUUUUGUUA, which “pre-steady-state target cleavage rate” value is on record?
Its value is 0.00203 ± 0.0051.

With UCCUGGUACACGAUGCAUAGUAUUUUCAAA as the sequence, how does the “pre-steady-state target cleavage rate” value read?
The value was 0.00208 ± 0.0049.

Which “pre-steady-state target cleavage rate” value does the source give for UCCUGGAUGAGCUUGCUAAGUAUUUAGUAA here?
Its value is 0.00149 ± 0.0044.

For UCCUGGAUGACGUUGCAUAGUAUUUAGAAA, which “pre-steady-state target cleavage rate” value is on record?
The value was 0.000729 ± 0.0079.

How did the “pre-steady-state target cleavage rate” value turn out when UCCUGGAACAGCUUGCAUAGUAAAUUCAAA was run?
Its value is 0.000708 ± 0.0073.

Which “pre-steady-state target cleavage rate” value does the source give for UCCUGGAUGUCGAAGCAUCGUAUUUAGUUA here?
The value was 0.00172 ± 0.0035.

For UCCUGGAUGUCGAAGGAUAGUAUUUUGUUA, which “pre-steady-state target cleavage rate” value is on record?
Its value is 0.000123 ± 0.037.

For UCCUGGAUGAGCUUCGAUAGUAUUUAGUAA, which “pre-steady-state target cleavage rate” value is on record?
Its value is 0.000737 ± 0.0084.

UCCUGGAUGUCGAACCAUAGUAUUUCGUUA was tested. Which “pre-steady-state target cleavage rate” value did it give?
Its value is 0.000129 ± 0.031.

UCCUGGAUGUCGUUCCAUACUAUUUAGUUA was tested. Which “pre-steady-state target cleavage rate” value did it give?
The value was 0.000382 ± 0.013.

Which “pre-steady-state target cleavage rate” value does the source give for UCCUGGAUCAGCUUGCACUAGUAUUUAGUUA here?
Its value is 0.00117 ± 0.0054.

UCCUGGAUCAGCUUGCUAUGUAUUUACAAA was tested. Which “pre-steady-state target cleavage rate” value did it give?
The value was 0.00104 ± 0.0053.

UCCUGGAUGUCGAACCAUAGUAUUUACGUUA was tested. Which “pre-steady-state target cleavage rate” value did it give?
The value was 0.000207 ± 0.027.

With UCCUGGAUGUGCUUGCAUAGUAAAAAGUUA as the sequence, how does the “pre-steady-state target cleavage rate” value read?
The value was 0.00239 ± 0.0031.

How did the “pre-steady-state target cleavage rate” value turn out when UCCUGGAUCAGCUUCGUUAGUAUUUACAAA was run?
Its value is 0.000569 ± 0.013.

For UCCUGGAUGUCGAAGCAUAGCUAUUUAGUUA, which “pre-steady-state target cleavage rate” value is on record?
Its value is 0.000271 ± 0.016.

With UCCUGGAUGUCGAUACAUAGUAUUUAGUUA as the sequence, how does the “pre-steady-state target cleavage rate” value read?
Its value is 0.00226 ± 0.003.

For UCCUGGAUGUCGAAGCAUAGUAUUAUAGUUA, which “pre-steady-state target cleavage rate” value is on record?
The value was 0.00204 ± 0.0038.

UCCUGGAUGUCGUUCCAUUGUAUUUAGUUA was tested. Which “pre-steady-state target cleavage rate” value did it give?
Its value is 0.000308 ± 0.018.

How did the “pre-steady-state target cleavage rate” value turn out when UCCUGCUACAGCUUCGUUAGUAUUUAGAAA was run?
The value was 0.000415 ± 0.012.

With UCCUCCUACAGCUUGCAUAGUAAAAAGUUA as the sequence, how does the “pre-steady-state target cleavage rate” value read?
The value was 0.00196 ± 0.0038.

For UCCUGGUACAGCUUGGAUAGUAUUUACAAA, which “pre-steady-state target cleavage rate” value is on record?
The value was 0.00149 ± 0.0056.

UCCUGGAUGUCCUUGCAAUAGUAUUUAGUUA was tested. Which “pre-steady-state target cleavage rate” value did it give?
The value was 0.00216 ± 0.0029.

With UCCUGCUACAGCUUGCAUAGUUAUUAGUAA as the sequence, how does the “pre-steady-state target cleavage rate” value read?
Its value is 0.000886 ± 0.0068.

For UCCUGGAUGUCGUACCAUAGUAUUUAGUUA, which “pre-steady-state target cleavage rate” value is on record?
The value was 0.000512 ± 0.01.

With UCCUGGAACAGCUUGCAUUCUAUUUACAAA as the sequence, how does the “pre-steady-state target cleavage rate” value read?
The value was 0.000549 ± 0.0083.

For UCCUGGAUGUCGUAGCUUAGUAUUUAGUUA, which “pre-steady-state target cleavage rate” value is on record?
The value was 0.00112 ± 0.0058.

With UCCUGGAUCAGCUUGCAUACUAUUUUCAAA as the sequence, how does the “pre-steady-state target cleavage rate” value read?
Its value is 0.000696 ± 0.008.

How did the “pre-steady-state target cleavage rate” value turn out when UCCUGGAACAGCUUGCAUUCUAUUUUCAAA was run?
The value was 0.00106 ± 0.0058.

How did the “pre-steady-state target cleavage rate” value turn out when UCCUGGUACAGCUUGCAUUCAAUUUAGUUA was run?
Its value is 0.00161 ± 0.0069.

Each sequence was assayed on MIWI (PIWIL1) piRISC loaded with L1MC piRNA (30 nt) in the same assay as above. Details: guide: L1MC piRNA 5'p-UAACUAAAUACUAUGCAAGCUGUAGGUCCU; auxiliary factor: 500 nM mouse GTSF1.
Summary of the method: as §1

With UCCUGGAUGUCGAUGCAGAGUAUUUAGUUA as the sequence, how does the “pre-steady-state target cleavage rate” value read?
Its value is 0.000216 ± 0.043.

For UCCUGGAUGUCGAACCAUAGUAAUUAGUUA, which “pre-steady-state target cleavage rate” value is on record?
The value was 0.000196 ± 0.019.

For UCCUGGAUGUCGAUGCAUACUUUUUAGUUA, which “pre-steady-state target cleavage rate” value is on record?
Its value is 0.000527 ± 0.019.

For UCCUGGUACAGCUUCCAUAGUAUUUUGUUA, which “pre-steady-state target cleavage rate” value is on record?
The value was 0.00347 ± 0.0057.

Which “pre-steady-state target cleavage rate” value does the source give for UCCUGGUACACGAUGCAUAGUAUUUUCAAA here?
Its value is 0.00195 ± 0.0069.

Which “pre-steady-state target cleavage rate” value does the source give for UCCUGGAUGAGCUUGCUAAGUAUUUAGUAA here?
The value was 0.00308 ± 0.0044.

Which “pre-steady-state target cleavage rate” value does the source give for UCCUCCUGCAGCUUGCAUAGUAUUUAGUUA here?
Its value is 1.1 ± 0.053.

For UCCUGGAUGACGUUGCAUAGUAUUUAGAAA, which “pre-steady-state target cleavage rate” value is on record?
The value was 0.00202 ± 0.0052.

Which “pre-steady-state target cleavage rate” value does the source give for UCCUCCUUACAGCUUGCAUAGUAUUUAGUUA here?
The value was 1.3 ± 0.052.

UCCUGGAUGUCGAAGCAUCGUAUUUAGUUA was tested. Which “pre-steady-state target cleavage rate” value did it give?
The value was 0.000946 ± 0.0069.

With UCCUGGAUGAGCUUCGAUAGUAUUUAGUAA as the sequence, how does the “pre-steady-state target cleavage rate” value read?
The value was 0.00125 ± 0.0082.

How did the “pre-steady-state target cleavage rate” value turn out when UCCUGGAUGUCGAACCAUAGUAUUUCGUUA was run?
Its value is 0.000494 ± 0.0081.

For UCCUGGAUGUCGUUCCAUACUAUUUAGUUA, which “pre-steady-state target cleavage rate” value is on record?
The value was 0.0033 ± 0.0053.

Which “pre-steady-state target cleavage rate” value does the source give for UCCUGGAUCAGCUUGCACUAGUAUUUAGUUA here?
Its value is 0.00245 ± 0.0046.

With UCCUGGAUCAGCUUGCUAUGUAUUUACAAA as the sequence, how does the “pre-steady-state target cleavage rate” value read?
Its value is 0.00128 ± 0.0079.

Which “pre-steady-state target cleavage rate” value does the source give for UCCUGGAUGUCGAACCAUAGUAUUUACGUUA here?
The value was 0.000432 ± 0.013.

For UCCUGGAUGUGCUUGCAUAGUAAAAAGUUA, which “pre-steady-state target cleavage rate” value is on record?
Its value is 0.00144 ± 0.0079.

UCCUCCUACAGCUUGCAUAAUAUUUAGUUA was tested. Which “pre-steady-state target cleavage rate” value did it give?
Its value is 0.52 ± 0.03.

How did the “pre-steady-state target cleavage rate” value turn out when UCCUGGAUCAGCUUCGUUAGUAUUUACAAA was run?
Its value is 0.000833 ± 0.012.

Which “pre-steady-state target cleavage rate” value does the source give for UCCUGGAUGUCGAUACAUAGUAUUUAGUUA here?
Its value is 0.00251 ± 0.0042.

For UCCUGGAUGUCGUUCCAUUGUAUUUAGUUA, which “pre-steady-state target cleavage rate” value is on record?
Its value is 0.00124 ± 0.0069.

UCCUGCUACAGCUUCGUUAGUAUUUAGAAA was tested. Which “pre-steady-state target cleavage rate” value did it give?
Its value is 0.00185 ± 0.0048.

Which “pre-steady-state target cleavage rate” value does the source give for UCCUCCUACAGCUUGCAUAGUAAAAAGUUA here?
The value was 0.231 ± 0.023.

With UCCUGGUACAGCUUGGAUAGUAUUUACAAA as the sequence, how does the “pre-steady-state target cleavage rate” value read?
The value was 0.00354 ± 0.0047.

With UCCUGGAUGUCCUUGCAAUAGUAUUUAGUUA as the sequence, how does the “pre-steady-state target cleavage rate” value read?
The value was 0.00199 ± 0.0056.

UCCUCGUACAGCUUGCAUAGUAUUUAGUUA was tested. Which “pre-steady-state target cleavage rate” value did it give?
Its value is 1.46 ± 0.043.

Which “pre-steady-state target cleavage rate” value does the source give for UCCUGGAUGUCGUACCAUAGUAUUUAGUUA here?
The value was 0.00228 ± 0.0036.

UCCUGGAUGUCGAACGUAAUAUUUAGUUA was tested. Which “pre-steady-state target cleavage rate” value did it give?
The value was 0.0002 ± 0.035.

UCCUGGAACAGCUUGCAUUCUAUUUACAAA was tested. Which “pre-steady-state target cleavage rate” value did it give?
The value was 0.00386 ± 0.0046.

Which “pre-steady-state target cleavage rate” value does the source give for UCCUGGAUGUCGUAGCUUAGUAUUUAGUUA here?
Its value is 0.00127 ± 0.0089.

UCCUGGAUCAGCUUGCAUACUAUUUUCAAA was tested. Which “pre-steady-state target cleavage rate” value did it give?
Its value is 0.00597 ± 0.0043.

UCCUGGAACAGCUUGCAUUCUAUUUUCAAA was tested. Which “pre-steady-state target cleavage rate” value did it give?
Its value is 0.00289 ± 0.0061.

UCCUGGUACAGCUUGCAUUCAAUUUAGUUA was tested. Which “pre-steady-state target cleavage rate” value did it give?
Its value is 0.00302 ± 0.0037.
